The experiment deals with Full-length mouse nectin-2α expressed on L cells (nectin-2α-L cells) (mouse) (UniProt P32507). As to the kind of experiment: mixed-cell aggregation assay and immunofluorescence microscopy of co-cultured L cell lines (trans interaction).

Chains of the proteins cited; added tags and fusions are not shown. Lines headed by an entry give the natural chain unless they say otherwise; changes in a name come on top.
UniProt P32507: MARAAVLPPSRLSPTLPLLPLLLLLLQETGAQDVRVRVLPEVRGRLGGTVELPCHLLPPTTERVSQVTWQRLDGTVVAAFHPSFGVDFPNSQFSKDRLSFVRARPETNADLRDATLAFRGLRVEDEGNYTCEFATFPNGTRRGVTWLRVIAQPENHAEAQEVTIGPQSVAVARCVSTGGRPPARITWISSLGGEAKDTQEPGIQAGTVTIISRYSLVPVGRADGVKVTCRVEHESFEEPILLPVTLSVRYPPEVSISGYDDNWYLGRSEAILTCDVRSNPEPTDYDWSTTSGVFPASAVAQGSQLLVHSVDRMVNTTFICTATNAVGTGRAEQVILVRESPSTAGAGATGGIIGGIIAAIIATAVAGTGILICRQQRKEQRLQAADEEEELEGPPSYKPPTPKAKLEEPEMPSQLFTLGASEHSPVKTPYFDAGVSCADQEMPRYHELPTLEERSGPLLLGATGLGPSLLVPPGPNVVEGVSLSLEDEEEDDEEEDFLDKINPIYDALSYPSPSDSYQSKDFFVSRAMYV

Drawing on patent US20030008334A1, this text covers binding for one molecule.

No constants are given. Whether binding was seen depends on the method and setting.

B1: Full-length human nectin-1α expressed on L cells (nectin-1α-L cells) (receptor, UniProt Q15223 31-517, looked up)
chain: QVVQVNDSMYGFIGTDVVLHCSFANPLPSVKITQVTWQKSTNGSKQNVAIYNPSMGVSVLAPYRERVEFLRPSFTDGTIRLSRLELEDEGVYICEFATFPTGNRESQLNLTVMAKPTNWIEGTQAVLRAKKGQDDKVLVATCTSANGKPPSVVSWETRLKGEAEYQEIRNPNGTVTVISRYRLVPSREAHQQSLACIVNYHMDRFKESLTLNVQYEPEVTIEGFDGNWYLQRMDVKLTCKADANPPATEYHWTTLNGSLPKGVEAQNRTLFFKGPINYSLAGTYICEATNPIGTRSGQVEVNITEFPYTPSPPEHGRRAGPVPTAIIGGVAGSILLVLIVVGGIVVALRRRRHTFKGDYSTKKHVYGNGYSKAGIPQHHPPMAQNLQYPDDSDDEKKAGPLGGSSYEEEEEEEEGGGGGERKVGGPHPKYDEDAKRPYFTVDEAEARQDGYGDRTLGYQYDPEQLDLAENMVSQNDGSFISKKEWYV
Turning to B1, the binding entry is on record as “no binding”.
